Assay results taken from patent US20210261671A1.
Positions count from the first letter of the chain named. These are yes or no findings as the source states them, for the method shown. Some binding calls cover weakened binding; strength is not graded here. Values belong to the binder of their own block, whether it stands above or below them.

Chains of the proteins cited; added tags and fusions are not shown. Lines headed by an entry give the natural chain unless they say otherwise; changes in a name come on top.
UniProt P36888: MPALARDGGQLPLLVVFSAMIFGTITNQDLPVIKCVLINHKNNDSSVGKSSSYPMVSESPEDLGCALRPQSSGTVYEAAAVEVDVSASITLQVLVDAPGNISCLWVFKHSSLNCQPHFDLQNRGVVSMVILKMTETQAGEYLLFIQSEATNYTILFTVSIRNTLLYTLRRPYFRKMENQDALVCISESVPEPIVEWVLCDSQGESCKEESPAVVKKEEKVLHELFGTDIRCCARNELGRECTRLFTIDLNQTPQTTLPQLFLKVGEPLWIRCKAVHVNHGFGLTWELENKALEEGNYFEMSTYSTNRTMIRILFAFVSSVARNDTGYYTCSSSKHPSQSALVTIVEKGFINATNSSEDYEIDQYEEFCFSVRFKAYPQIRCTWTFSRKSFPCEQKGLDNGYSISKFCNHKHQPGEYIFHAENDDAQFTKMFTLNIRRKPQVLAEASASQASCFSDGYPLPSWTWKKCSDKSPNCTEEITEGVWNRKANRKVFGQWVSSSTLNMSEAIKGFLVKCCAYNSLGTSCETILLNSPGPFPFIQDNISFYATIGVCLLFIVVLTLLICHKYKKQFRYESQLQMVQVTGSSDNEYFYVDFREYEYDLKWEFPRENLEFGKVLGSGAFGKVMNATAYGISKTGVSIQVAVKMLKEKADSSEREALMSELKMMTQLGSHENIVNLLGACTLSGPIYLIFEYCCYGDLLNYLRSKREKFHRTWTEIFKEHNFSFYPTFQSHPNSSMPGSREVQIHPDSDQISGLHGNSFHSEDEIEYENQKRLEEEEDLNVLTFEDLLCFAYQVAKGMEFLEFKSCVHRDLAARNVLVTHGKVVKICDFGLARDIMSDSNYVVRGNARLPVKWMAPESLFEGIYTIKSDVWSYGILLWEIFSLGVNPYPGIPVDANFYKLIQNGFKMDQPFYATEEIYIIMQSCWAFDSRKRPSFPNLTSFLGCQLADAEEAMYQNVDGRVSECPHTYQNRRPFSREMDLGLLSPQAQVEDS

Target: human FLT3 protein (human) (UniProt P36888)
Assay: colorimetric ELISA, periplasmic extract

B2: FLL75 (VHH)
VHH: QVQLQESGGGLVQAGGSLRLSCAVSGRTFSGFGTGWFRQAPGKEREFVAAISWSGGTTHYADSVKGRFTISRDNAKNTVNLVYLQMNDLRPEDTAVYYCAGQVARAYDSNWYSRGDYWGQGTQVTVSS
binding: binds

B3: FLL53 (VHH)
VHH: B2 VHH with G16D, I51V, W53Q, V79E, N80T, D88S, R90K, N110S, S113A
binding: binds

B5: FLL101 (VHH)
VHH: QVQLQESGGGLVQAGGSLRLSCAASGVTFSINYIDWYRQAPGKQREWVAQITRDSNSFYADSVKGRFAISRDNAKNTVYLQMNNLKPEDTAVYYCRVLSYWGQGTQVTVSS
binding: binds

B6: FLL116 (VHH)
VHH: B5 VHH with N84S
binding: binds

B7: FLL77 (VHH)
VHH: B5 VHH with A14P, N32S, K43N, Q44E, D54G, S55G, N56D, N84S, V97I
binding: binds

B8: FLL103 (VHH)
VHH: B5 VHH with A23E, V27P, I69V, N84S
binding: binds

B10: FLL32 (VHH)
VHH: B5 VHH with A23Q, S30N, K43R, N56T, S57R, T77M, M82L, N84S, V97I
binding: binds

B11: FLL129 (VHH)
VHH: B5 VHH with I31A, N32S, K43N, Q44E, D54G, S55G, N56D, N84S
binding: binds

B12: FLL14 (VHH)
VHH: B5 VHH with N84S, V97L
binding: binds

B15: FLL97 (VHH)
VHH: B5 VHH with I69V, N84S
binding: binds

B18: FLL38 (VHH)
VHH: QVQLQESGGGLVQAGGSLRLSCAVSGRTFSGFGTGWFRQAPGKEREFVAAVSWSGGTTEIADSVKGRFTISRDNAKNTVYLQMSSLKPGDTAVYYCAGQVARAYDSRWYSRGDYWGQGTQVTVSS
binding: binds

B19: FLL125 (VHH)
VHH: QVQLQESGGGLVQAGGSLRLSCAASGSTFSRNYIDWYRQAPGKQREWVAQITSGGNTHYEPSLKGRFTISRDNAKNTAYLQMNSLKPEDTAVYYCRILDYWGQGTQVTVSS
binding: binds

B20: FLL21 (VHH)
VHH: B19 VHH with A14P, R19T
binding: binds

B21: FLL55 (VHH)
VHH: B19 VHH with G54A
binding: binds

B22: FLL62 (VHH)
VHH: B19 VHH with F29S
binding: binds

B24: FLL86 (VHH)
VHH: B19 VHH with A14P, G16D, S17P
binding: binds

B25: FLL79 (VHH)
VHH: B19 VHH with A23S
binding: binds

B26: FLL57 (VHH)
VHH: B19 VHH with R31K
binding: binds

B28: FLL102 (VHH)
VHH: QVQLQESGGGLVQAGGSLMVSCAASGGTWSSYATGWFRQVPGKERKLIAGISRSGGRTYYAESVKGRFTISRDNAKNTVYLQMNTLKPDDTAVYYCAAARYFTSSVVYTSGNDYDYWGQGTQVTVSS
binding: binds

B29: FLL67 (VHH)
VHH: B28 VHH with A14L, G16D, W29F, K46E, L47F, S104T, N112D
binding: binds

B30: FLL41 (VHH)
VHH: B28 VHH with A14L, G16D, W29F, K43R, K46E, L47F, S104T, N112D
binding: binds

B31: FLL122 (VHH)
VHH: B28 VHH with K46E
binding: binds

B32: FLL92 (VHH)
VHH: B28 VHH with K46E, P88S
binding: binds

B33: FLL51 (VHH)
VHH: QVQLQESGGGLVQPGGSLRLSCAASGFDFSISYIDWYRQAPGNEREWVAQITRGGDSFYADSVKGRFAISRDNAKNTVYLQMNSLKPEDTAVYYCRILSYWGQGTQVTVSS
binding: binds

B34: FLL83 (VHH)
VHH: QVQLQESGGGLVQAGGSLRLSCAVSGRTFSGFGTGWFRQAPGKEREFVAAISWSGGTTHYADSVKGRFTISRDNAENTVYLEMNSLKPEDTAVYICAGQVSRAYDSNWYSRDDYWGQGTQVTVSS
binding: binds

B35: FLL112 (VHH)
VHH: QVQLQESGGGLVQAGGSLRLSCAVSGRTFSGFGTGWFRQAPGKEREFVAAISWAGGRTHYEDSVKGRFTIHRDNAKNTVYLQMNSLKPEDTAVYYCAAQVSRAYDGIWYSGGDYWGQGTQVTVSS
binding: binds

B38: FLL74 (VHH)
VHH: B35 VHH with A23R, V24F, H71S, A98V
binding: binds

B39: FLL94 (VHH)
VHH: B35 VHH with G42E, A54D, E61A, H71S, V93I, A98G, S101A, G106T, I107R, G111R
binding: binds

B40: FLL6 (VHH)
VHH: B34 VHH with S54D, T57R, E76A, E82Q, I95Y, N107M, S110G
binding: binds

B43: FLL99 (VHH)
VHH: B35 VHH with A54D, E61A, S63F, H71S, S101A, G106S, I107R
binding: binds

More lines, now with the values ahead:

binding: binds
B1: FLL153 (VHH)
VHH: QVQLQESGGGLVQVGGSLMVSCAASGGTFSSYATGWFRQVPGKEREFIAGVSRNSGRTYYAESVKGRFTISRDNAKNTVYLQMNTLKPDDTGVYYCAAARYFTRDAVYTSGDDYDYWGQGTQVTVSS

binding: binds
B4: FLL168 (VHH)
VHH: QVQLQESGGGSVQAGGSLRLSCAFSGRTFSGFGTGWFRQAPEKEREFVAAISWDGGRTHYADSVKGRFTISRDNAKNTVYLQMDSLKPEDTAIYYCAAQVSRAYDGRWYSAVDYWGRGTQVTVSS

binding: binds
B9: FLL146 (VHH)
VHH: B5 VHH with S55D, N56T, K86R, V97L, Y100F

binding: binds
B13: FLL137 (VHH)
VHH: B5 VHH with V27S, S30N, I31N, N32Y, Y33A, I34M, Y37F, N56S, N84S

binding: binds
B14: FLL187 (VHH)
VHH: B5 VHH with A14P, D72E, N84S

binding: binds
B16: FLL181 (VHH)
VHH: B33 VHH with P14A, G16D, F27V, D28T, I31A, I97V

binding: binds
B17: FLL179 (VHH)
VHH: B5 VHH with A23K, S55G, N56S, N84S, V97I, Y100D

binding: binds
B23: FLL158 (VHH)
VHH: B19 VHH with A14P, S30G

binding: binds
B27: FLL134 (VHH)
VHH: QVQLQESGGGLVQPGGSLRLSCAASGGTFSSYATGWFRQVPGKEREFIAGISRNSGRTYAESVKGRFTISRDNAKNTVYLQMNTLRPDDTAVYYCAAARYFTRDAIYTSGDDYDYWGQGTQVTASS

binding: binds
B36: FLL143 (VHH)
VHH: B35 VHH with A54V, E61A, H71S, S101A, I107N

binding: binds
B37: FLL170 (VHH)
VHH: B34 VHH with E76K, E82Q, I95Y, S101A, N107S, D112G

binding: binds
B41: FLL188 (VHH)
VHH: B35 VHH with R19G, A40P, G42E, A54D, E61A, H71S, Y80F, S101A, G106S, I107R

binding: binds
B42: FLL154 (VHH)
VHH: B35 VHH with A54S, E61A, H71S, A98G, S101A, I107N, G111R

binding: binds
B44: FLL142 (VHH)
VHH: B35 VHH with A54D, E61A, S63F, H71S, S101A, G106S, I107K
